{"source": "PubChem BioAssay AID652272 (Drosophila RNAi Screening Center, 2013)", "test": "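Genes whose knock-down decreases or increases Hedgehog reporter output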 (primary screen)", "cell system": "Drosophila clone 8 (Cl8) cells", "reagents": "long dsRNA against Drosophila genes", "measurement": "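Plate reader light from a firefly reporter under a ptc promoter fragment that responds to Hedgehog, with Renilla light as transfection reference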", "scale": "firefly Hh reporter signal: higher = more ptc reporter light; Renilla reference signal: higher = more Renilla control light", "call rule": "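Called a hit if the two-replicate mean z-score lies below -2 or above +3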", "meaning of the calls": "active = hit: reporter lowered or raised; inactive = not a hit", "note": "The deposit covers about 21,000 reagents; below is a random part of those that have a named target and a result. In the full data, 503 (2.4%) were called active. 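Raw plate light values, not normalised; calls rest on replicate z-scores that were not deposited; hits include reporter decreases as well as increases.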 The numbers tell different reagents against one gene apart. Not given: the amount of reagent, the time to read-out."}
{"Gene": "Mdr49", "reagent no.": 1, "firefly Hh reporter signal, replicate 1": 1.53e5, "firefly Hh reporter signal, replicate 2": 72069, "Renilla reference signal, replicate 1": 5671, "Renilla reference signal, replicate 2": 1285, "Call": "inactive"}
{"Gene": "hyx", "reagent no.": 1, "firefly Hh reporter signal, replicate 1": 1.10e5, "firefly Hh reporter signal, replicate 2": 1.20e5, "Renilla reference signal, replicate 1": 3568, "Renilla reference signal, replicate 2": 3443, "Call": "inactive"}
{"Gene": "CG1552", "reagent no.": 1, "firefly Hh reporter signal, replicate 1": 96250, "firefly Hh reporter signal, replicate 2": 1.97e5, "Renilla reference signal, replicate 1": 2577, "Renilla reference signal, replicate 2": 8331, "Call": "inactive"}
{"Gene": "PolH", "reagent no.": 1, "firefly Hh reporter signal, replicate 1": 1.39e5, "firefly Hh reporter signal, replicate 2": 1.16e5, "Renilla reference signal, replicate 1": 5440, "Renilla reference signal, replicate 2": 5153, "Call": "inactive"}
{"Gene": "Qsox2", "reagent no.": 1, "firefly Hh reporter signal, replicate 1": 1.05e5, "firefly Hh reporter signal, replicate 2": 66288, "Renilla reference signal, replicate 1": 4168, "Renilla reference signal, replicate 2": 2832, "Call": "inactive"}
{"Gene": "Ythdf", "reagent no.": 1, "firefly Hh reporter signal, replicate 1": 4.51e5, "firefly Hh reporter signal, replicate 2": 99707, "Renilla reference signal, replicate 1": 22585, "Renilla reference signal, replicate 2": 2829, "Call": "inactive"}
{"Gene": "Ythdf", "reagent no.": 2, "firefly Hh reporter signal, replicate 1": 5.24e5, "firefly Hh reporter signal, replicate 2": 1.17e5, "Renilla reference signal, replicate 1": 26298, "Renilla reference signal, replicate 2": 3732, "Call": "inactive"}
{"Gene": "kel", "reagent no.": 1, "firefly Hh reporter signal, replicate 1": 69332, "firefly Hh reporter signal, replicate 2": 70538, "Renilla reference signal, replicate 1": 2057, "Renilla reference signal, replicate 2": 5680, "Call": "inactive"}
{"Gene": "CG13843", "reagent no.": 1, "firefly Hh reporter signal, replicate 1": 5.32e5, "firefly Hh reporter signal, replicate 2": 1.00e5, "Renilla reference signal, replicate 1": 28859, "Renilla reference signal, replicate 2": 2788, "Call": "inactive"}

Entries listed so far whose gene name starts with C or c:
{"Gene": "CG1552", "reagent no.": 1, "firefly Hh reporter signal, replicate 1": 96250, "firefly Hh reporter signal, replicate 2": 1.97e5, "Renilla reference signal, replicate 1": 2577, "Renilla reference signal, replicate 2": 8331, "Call": "inactive"}
{"Gene": "CG13843", "reagent no.": 1, "firefly Hh reporter signal, replicate 1": 5.32e5, "firefly Hh reporter signal, replicate 2": 1.00e5, "Renilla reference signal, replicate 1": 28859, "Renilla reference signal, replicate 2": 2788, "Call": "inactive"}

Additional results:
{"Gene": "CG34454", "reagent no.": 1, "firefly Hh reporter signal, replicate 1": 1.36e5, "firefly Hh reporter signal, replicate 2": 2.59e5, "Renilla reference signal, replicate 1": 3867, "Renilla reference signal, replicate 2": 10664, "Call": "inactive"}
{"Gene": "teq", "reagent no.": 1, "firefly Hh reporter signal, replicate 1": 44851, "firefly Hh reporter signal, replicate 2": 45533, "Renilla reference signal, replicate 1": 3789, "Renilla reference signal, replicate 2": 1264, "Call": "inactive"}
{"Gene": "teq", "reagent no.": 2, "firefly Hh reporter signal, replicate 1": 38720, "firefly Hh reporter signal, replicate 2": 56514, "Renilla reference signal, replicate 1": 3894, "Renilla reference signal, replicate 2": 1842, "Call": "inactive"}
{"Gene": "teq", "reagent no.": 3, "firefly Hh reporter signal, replicate 1": 62131, "firefly Hh reporter signal, replicate 2": 59082, "Renilla reference signal, replicate 1": 4739, "Renilla reference signal, replicate 2": 3098, "Call": "inactive"}
{"Gene": "PDCD-5", "reagent no.": 1, "firefly Hh reporter signal, replicate 1": 1.51e5, "Renilla reference signal, replicate 1": 6384, "Renilla reference signal, replicate 2": 4486, "Call": "inactive"}
{"Gene": "mRpL47", "reagent no.": 1, "firefly Hh reporter signal, replicate 1": 50541, "firefly Hh reporter signal, replicate 2": 81065, "Renilla reference signal, replicate 1": 1299, "Renilla reference signal, replicate 2": 2691, "Call": "inactive"}
{"Gene": "Trxr1", "reagent no.": 1, "firefly Hh reporter signal, replicate 1": 1.05e5, "firefly Hh reporter signal, replicate 2": 1.01e5, "Renilla reference signal, replicate 1": 2185, "Renilla reference signal, replicate 2": 2320, "Call": "inactive"}
{"Gene": "CG2147", "reagent no.": 1, "firefly Hh reporter signal, replicate 1": 93837, "firefly Hh reporter signal, replicate 2": 64352, "Renilla reference signal, replicate 1": 2210, "Renilla reference signal, replicate 2": 1634, "Call": "inactive"}
{"Gene": "CG7646", "reagent no.": 1, "firefly Hh reporter signal, replicate 1": 1.41e5, "firefly Hh reporter signal, replicate 2": 1.59e5, "Renilla reference signal, replicate 1": 3635, "Renilla reference signal, replicate 2": 4790, "Call": "inactive"}
{"Gene": "Cpr72Eb", "reagent no.": 1, "firefly Hh reporter signal, replicate 1": 1.01e5, "Renilla reference signal, replicate 1": 6893, "Renilla reference signal, replicate 2": 3213, "Call": "inactive"}
{"Gene": "gcl", "reagent no.": 1, "firefly Hh reporter signal, replicate 1": 76569, "firefly Hh reporter signal, replicate 2": 25882, "Renilla reference signal, replicate 1": 2595, "Renilla reference signal, replicate 2": 977, "Call": "inactive"}
{"Gene": "CG32645", "reagent no.": 1, "firefly Hh reporter signal, replicate 1": 99105, "firefly Hh reporter signal, replicate 2": 3.26e5, "Renilla reference signal, replicate 1": 1866, "Renilla reference signal, replicate 2": 10987, "Call": "inactive"}
{"Gene": "CG32645", "reagent no.": 2, "firefly Hh reporter signal, replicate 1": 72164, "firefly Hh reporter signal, replicate 2": 2.87e5, "Renilla reference signal, replicate 1": 1913, "Renilla reference signal, replicate 2": 9851, "Call": "inactive"}
{"Gene": "Vap33", "reagent no.": 1, "firefly Hh reporter signal, replicate 1": 1.52e5, "firefly Hh reporter signal, replicate 2": 1.20e5, "Renilla reference signal, replicate 1": 2996, "Renilla reference signal, replicate 2": 3553, "Call": "inactive"}
{"Gene": "CG9826", "reagent no.": 1, "firefly Hh reporter signal, replicate 1": 81155, "firefly Hh reporter signal, replicate 2": 60043, "Renilla reference signal, replicate 1": 1339, "Renilla reference signal, replicate 2": 5709, "Call": "inactive"}
{"Gene": "fy", "reagent no.": 1, "firefly Hh reporter signal, replicate 1": 75504, "firefly Hh reporter signal, replicate 2": 46389, "Renilla reference signal, replicate 1": 2077, "Renilla reference signal, replicate 2": 4012, "Call": "inactive"}
{"Gene": "CG7786", "reagent no.": 1, "firefly Hh reporter signal, replicate 1": 1.06e5, "firefly Hh reporter signal, replicate 2": 72825, "Renilla reference signal, replicate 1": 2820, "Renilla reference signal, replicate 2": 4247, "Call": "inactive"}
{"Gene": "mor", "reagent no.": 1, "firefly Hh reporter signal, replicate 1": 74692, "firefly Hh reporter signal, replicate 2": 68704, "Renilla reference signal, replicate 1": 1664, "Renilla reference signal, replicate 2": 5552, "Call": "inactive"}
